{"source": "patent US20240034776A1", "binders": {"B1": {"name": "ITPRIPL1-RBD recombinant protein (human ITPRIPL1 extracellular domain, 25-103 amino acids, C-terminal 6x-His and Myc tags, Cusabio, from yeast) (ligand, not shown: small tags and cut ends)", "chain": "HPLMVSDRMDLDTLARSRQLEKRMSEEMRLLEMEFEERKRAAEQRQKAENFWTGDTSSDQLVLGKKDMGWPFQADGQEG"}, "B2": {"name": "ITPRIPL1 extracellular domain (25-103 amino acids) with C-terminal Flag tag and GFP (ligand, not shown: large carriers)", "chain": "B1 chain"}, "B3": {"name": "NRP2 extracellular domain protein with hFc (Sino Biological) (Fc fusion, UniProt O60462 21-864, looked up, not shown: a dimerising Fc or GST)", "chain": "RGQPDPPCGGRLNSKDAGYITSPGYPQDYPSHQNCEWIVYAPEPNQKIVLNFNPHFEIEKHDCKYDFIEIRDGDSESADLLGKHCGNIAPPTIISSGSMLYIKFTSDYARQGAGFSLRYEIFKTGSEDCSKNFTSPNGTIESPGFPEKYPHNLDCTFTILAKPKMEIILQFLIFDLEHDPLQVGEGDCKYDWLDIWDGIPHVGPLIGKYCGTKTPSELRSSTGILSLTFHTDMAVAKDGFSARYYLVHQEPLENFQCNVPLGMESGRIANEQISASSTYSDGRWTPQQSRLHGDDNGWTPNLDSNKEYLQVDLRFLTMLTAIATQGAISRETQNGYYVKSYKLEVSTNGEDWMVYRHGKNHKVFQANNDATEVVLNKLHAPLLTRFVRIRPQTWHSGIALRLELFGCRVTDAPCSNMLGMLSGLIADSQISASSTQEYLWSPSAARLVSSRSGWFPRIPQAQPGEEWLQVDLGTPKTVKGVIIQGARGGDSITAVEARAFVRKFKVSYSLNGKDWEYIQDPRTQQPKLFEGNMHYDTPDIRRFDPIPAQYVRVYPERWSPAGIGMRLEVLGCDWTDSKPTVETLGPTVKSEETTTPYPTEEEATECGENCSFEDDKDLQLPSGFNCNFDFLEEPCGWMYDHAKWLRTTWASSSSPNDRTFPDDRNFLRLQSDSQREGQYARLISPPVHLPRSPVCMEFQYQATGGRGVALQVVREASQESKLLWVIREDQGGEWKHGRIILPSYDMEYQIVFEGVIGKGRSGEIAIDDIRISTDVPLENCMEPISAFAGENFKVDIPEIHEREGYEDEIDDEYEVDWSNSSSATSGSGAPSTDKEKSWLYTLDP"}, "B4": {"name": "Flag-tagged mouse ITPRIPL1 extracellular domain-green fluorescent protein (ligand, UniProt A2ASA8 23-96, looked up, not shown: large carriers)", "chain": "DRMDLDTLARSRQLEKRMSEEMRQLEMEFEERSRAAEQKQKVENFWRGDTSSDQLVLGKKDMGWPFQAGGQDGG"}}, "key": {"[1]": {"biological_target": "CD3E-human Fc protein (Sino Biological) (UniProt P07766)", "assay": "OCTET (legend of FIG. 40)"}, "[2]": {"biological_target": "CD3 (CD3ε) endogenously expressed in Jurkat cells (UniProt P07766)", "assay": "flow cytometry on Jurkat cells (legend of FIG. 9 and FIG. 10)"}, "[3]": {"biological_target": "T1, NRP2 extracellular domain protein with hFc (Sino Biological) (UniProt O60462)", "T1 sequence (looked up)": "B3 chain"}, "[4]": {"biological_target": "CD3 (CD3ε) endogenously expressed in Jurkat cells (UniProt P07766)", "assay": "flow cytometry on Jurkat cells, 0.5-4 µg/ml protein, anti-6x-His-FITC"}, "[5]": {"biological_target": "CD3E-human Fc protein (Sino Biological) (UniProt P07766)", "assay": "OCTET (BLI), CD3E-Fc on Fc probes, ITPRIPL1 extracellular domain at 800/1600/3200 nM"}, "[6]": {"biological_target": "HA-tagged CD3ε (expressed from pcDNA3.1 in transfected HCT116 cells) (human) (UniProt P07766)", "assay": "co-immunoprecipitation (Flag IP) from co-transfected HCT116 cells, Western blot"}, "[7]": {"biological_target": "HA-tagged CD3ε (expressed from pcDNA3.1 in transfected HCT116 cells) (human) (UniProt P07766)", "assay": "co-immunoprecipitation (HA or Flag IP) from co-transfected HCT116 cells, Western blot"}, "[8]": {"biological_target": "T2, Flag-tagged full-length human ITPRIPL1 (expressed from pcDNA3.1 in transfected cells) (human) (UniProt Q6GPH6)", "T2 sequence": "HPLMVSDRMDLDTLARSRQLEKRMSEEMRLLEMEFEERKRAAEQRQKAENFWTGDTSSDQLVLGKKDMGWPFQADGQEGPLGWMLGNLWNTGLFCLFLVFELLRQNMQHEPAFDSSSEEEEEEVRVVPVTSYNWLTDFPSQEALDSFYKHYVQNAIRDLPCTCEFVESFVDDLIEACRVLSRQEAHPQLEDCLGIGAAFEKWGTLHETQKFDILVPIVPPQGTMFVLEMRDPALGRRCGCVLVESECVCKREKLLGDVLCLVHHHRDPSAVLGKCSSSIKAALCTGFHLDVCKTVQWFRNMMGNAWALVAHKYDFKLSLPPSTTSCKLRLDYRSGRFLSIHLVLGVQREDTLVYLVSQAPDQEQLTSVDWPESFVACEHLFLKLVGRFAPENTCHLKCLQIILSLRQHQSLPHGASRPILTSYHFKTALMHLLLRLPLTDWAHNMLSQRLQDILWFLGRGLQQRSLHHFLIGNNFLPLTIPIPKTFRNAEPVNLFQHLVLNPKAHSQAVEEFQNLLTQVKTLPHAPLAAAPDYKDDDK", "assay": "flow cytometry (legend of FIG. 33 and FIG. 34)"}, "[9]": {"biological_target": "T2, Flag-tagged full-length human ITPRIPL1 (expressed from pcDNA3.1 in transfected cells) (human)", "assay": "flow cytometry on 293E-ITPRIPL1 cells, 0-4 µg/ml NRP2 protein"}, "[10]": {"biological_target": "HA-tagged CD3ε (expressed from pcDNA3.1 in transfected HCT116 cells) (human) (UniProt P07766)", "assay": "immunofluorescence of co-cultured, separately transfected HCT116 cells"}}, "note": "Results are given in words; binding and its absence hold for the method and conditions named. For some of these results: Binding seen in cells or lysates may run through a third protein. Some entries that bind do so weakly or less than the wild type. Where a sequence is shown, tags or fusion partners need not be part of it.", "data": [{"binder": "B1", "values": [{"measurement": "binding", "setting": "[1]", "value": "binds"}, {"measurement": "binding", "setting": "[2]", "value": "binds"}, {"measurement": "binding", "setting": "[3]", "value": "binds"}, {"measurement": "binding", "setting": "[4]", "value": "binds"}, {"measurement": "binding", "setting": "[5]", "value": "binds"}]}, {"binder": "B2", "values": [{"measurement": "binding", "setting": "[6]", "value": "binds"}, {"measurement": "binding", "setting": "[7]", "value": "binds"}]}, {"binder": "B3", "values": [{"measurement": "binding", "setting": "[8]", "value": "binds"}, {"measurement": "binding", "setting": "[9]", "value": "binds"}]}, {"binder": "B4", "values": [{"measurement": "binding", "setting": "[10]", "value": "binds"}]}]}
